Laboratory results taken from patent publication US20260022343A1 (AFFYXELL THERAPEUTICS, published 2026).
No constants are given. Whether binding was seen depends on the method and setting. Some binding calls cover weakened binding; strength is not graded here.

By UniProt entry, the sequences of proteins in these tests, tags left out. Residues count along the entry.
UniProt P29965, residues 108-261: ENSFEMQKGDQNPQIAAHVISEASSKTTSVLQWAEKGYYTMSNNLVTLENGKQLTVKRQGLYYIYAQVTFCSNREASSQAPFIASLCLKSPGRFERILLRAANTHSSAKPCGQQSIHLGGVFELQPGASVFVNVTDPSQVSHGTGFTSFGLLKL

Experiments:
[1] = target: recombinant human CD40L (R&D Systems, 6420-CL-025/CF) (human) (UniProt P29965); assay: binding ELISA on a plate coated with recombinant human CD40L, concentrated culture fluid in 1/3 serial dilution, TMB substrate, O.D. 450 nm
[2] = target: recombinant human CD40L (R&D Systems, 6420-CL-025/CF) (human) (UniProt P29965); assay: conclusion from binding ELISA and HEK-Blue CD40L assay

binding [1]: binds | binding [2]: binds
B1: anti-CD40L stefin A protein variant XT75 (SEQ ID NO: 105), secreted by gene-introduced MSC (eMSC) (designed binder)
chain: IPGGLSEAKPATPEIQEIVDKVKPQLEEKTGETYGKLEAVQYKTQVVHYYVHYNDQGTNYYIKVRAGDNKYMHLKVFKSLWGENLFAKWEDLVLTGYQVDKNKDDELTGFAEAAAKEAAAKEAAAKEAAAKEAAAKEAAAKMIPGGLSEAKPATPEIQEIVDKVKPQLEEKTGETYGKLEAVQYKTQVVHYYVHYNDQGTNYYIKVRAGDNKYMHLKVFKSLWGENLFAKWEDLVLTGYQVDKNKDDELTGFAEAAAKEAAAKEAAAKEAAAKEAAAKEAAAKMIPGGLSEAKPATPEIQEIVDKVKPQLEEKTGETYGKLEAVQYKTQVVHYYVHYNDQGTNYYIKVRAGDNKYMHLKVFKSLWGENLFAKWEDLVLTGYQVDKNKDDELTGFAEAAAKEAAAKEAAAKEAAAKEAAAKEAAAKMIPRGLSEAKPATPEIQEIVDKVKPQLEEKTGETYGKLEAVQYKTQVLANFFQRRWPGSTNYYIKVRAGDNKYMHLKVFNGPWKFRNTDRGADRVLTGYQVDKNKDDELTGF
notes: By their DNA these vectors appear to encode a further C-terminal Myc/His tag and a T2A remnant; also called AFX01-230 XT75(C); eMSC (XT75, w/EF1A)
